Reference: PubChem BioAssay AID493014 (National Center for Advancing Translational Sciences (NCATS), 2011)
The campaign covered roughly 340,000 compounds. About 170 (0.05%) were called active. This list was built around the results that the source calls inconclusive (neither active nor inactive); the mix of calls is not that of the screen. Calls follow the shape of the dose curve; as a rule, active = well fitted inhibition curve with a large enough effect in the signal ratio, with a control signal flat (not every such curve was filed as active); inconclusive = small, poorly fitted or top-dose-only effect, or effect the other way, or a change in a side signal; inactive = flat fitted curve, though single readings scatter; the % refers to the signal ratio. A potency beside an inconclusive call is a rough fit, not a confirmed value.

Assay: qHTS Assay to Find Inhibitors of Chronic Active B-Cell Receptor Signaling;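 as to activity change, negative = inhibition: plate controls were basal doxycycline-induced cells for no effect and cells given 10 µM MG132 for full effect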
Details: ABC-DLBCL IkBa-CBG/CBR reporter, luminescence ratio (green luciferase fused to IkBa over red control in TMD8 lymphoma cells), 4 h; activity change, negative = inhibition: at 46.1 µM (top of the series) unless noted
Procedure, shortened: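 TMD8 ABC-DLBCL cells carrying doxycycline-inducible green luciferase fused to IkappaBalpha plus unfused red luciferase were exposed to compounds (up to 46 uM) for 4 hrs at 37C. Activity came from the overlap-corrected green/red luminescence ratio.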
Potency is read from the fitted curve at half-maximal effect.

SMILES | activity change, negative = inhibition | Potency
COc1ccc(S(=O)(=O)N2CCCCCC2)cc1C(=O)N(C)Cc1ccc(Cl)cc1Cl | inactive: 23.3% | –
OCCNCCCOc1ccc(Cl)cc1Br | inconclusive: -19.6% | –
CCCCc1ccc(-c2ccc(C)cc2O)nc1 | inconclusive: -1.15% | –
O=C(NN=C1CCCCCCC1)c1ccccn1 | – | inconclusive: 25.1 µM [falling, single point]
O=C(NCC1CC1)c1ccc(Oc2cc(Cl)cc(Cl)c2)o1 | inconclusive: -5.94% | –
CCOCc1nnc(NC(=O)c2cc(C(=O)OC)cc([N+](=O)[O-])c2)s1 | inactive: -1.94% | –
CCOCCCn1c(=NC(C)=O)c(C#N)cc2c(=O)n3cccc(C)c3nc21 | inconclusive: 14.7% | –
CCOC(=O)[C@H]1[C@H]2COc3ccc(Cl)cc3[C@@H]2N2C(=O)c3ccc(F)cc3NC(=O)[C@@]12C | inconclusive: 20.5% | –
COc1c(Cl)cc(Cl)cc1C(=O)Nc1ccc(NC(=O)c2cccs2)cc1 | inconclusive: -1.2% | –
CN(C)S(=O)(=O)c1cc(NC(=O)CN2C(=O)NC3(CCCc4ccccc43)C2=O)ccc1Cl (centres undefined) | – | inconclusive: 8.2 µM [falling, partial curve, poor fit]
Cc1cc(C)c(NC(=O)CN(C)S(=O)(=O)c2ccc3c(c2)n(C)c(=O)c(=O)n3C)c(C)c1 | inactive: 6.56% | –
CNc1nc(Cl)nc(NC(C)(C)C)n1 | inconclusive: 4.14% | –
COc1ccccc1-c1cc(C(=O)N2CCOCC2)no1 | – | inconclusive: 35.5 µM [falling, single point]
Cc1cccc(C)c1NC(=O)N1CCC(C(=O)c2ccc(F)cc2)CC1 | inactive: -4.54% | –
CN(C(=O)c1ccc(Cl)c([N+](=O)[O-])c1)C1(C)CCS(=O)(=O)C1 (centres undefined) | inconclusive: 13.8% | –
N=c1c2c(-c3ccccc3)c(-c3ccccc3)oc2ncn1Cc1ccco1 | inconclusive: 24.2% | –
O=C(O)c1cc(C(=O)C2CCCCC2)c[nH]1 | – | inconclusive: 11.2 µM [falling, partial curve]
Cc1ccc(NC(=O)CCl)c(C)c1 | inconclusive: -0.789% | –
Cc1ccc(-c2cc(C(=O)NCCc3ccccc3)c3ccccc3n2)cc1C | inconclusive: 3.04% | –
O=[N+]([O-])c1ccc2c(c1)c(-c1ccccc1)nc1nncn12 | inconclusive: 14.6% | –
CCCNS(=O)(=O)c1ccc(CCC(=O)N2CCCC2)cc1 | inconclusive: 3.2% | –

SMILES | activity change, negative = inhibition | Potency
Nc1nonc1-n1nnc(C(=O)N/N=C/c2cc(Br)cs2)c1-c1ccccc1 | inconclusive: 23.4% | –
COc1ccc(/C=C/C(=O)N2CCN(S(=O)(=O)c3ccccc3Br)CC2)cc1OC | inconclusive: 2.74% | –
CCOC(=O)C(Cc1ccc(O)cc1)NC(=O)CCc1c[nH]c2ccccc12 (centres undefined) | inactive: -4.63% | –
CCn1c(CNc2ccc(F)cc2)nnc1SCC(=O)Nc1ccc(OC)cc1OC | inconclusive: -0.831% | –
COCc1cc(=O)n2c(-c3ccc(C)cc3)n[nH]c2n1 | – | inconclusive: 5.17 µM [falling, single point]
COC(=O)c1ccc(OCC(=O)NC2CCCCCC2)cc1 | inactive: 4.09% | –
CC(=O)c1cnc2cc(-c3ccc(C)cc3)nn2c1C | inconclusive: 11.8% | –
CCOc1ccccc1Nc1sc(C(=O)c2ccc(Cl)cc2)c(N)c1C#N | inconclusive: -6.35% | –
COc1ccccc1NC(=S)NC(NC(=O)c1ccco1)C(Cl)(Cl)Cl (centres undefined) | inconclusive: -11.2% | –
O=C(Nc1ccc(S(=O)(=O)Nc2ncccn2)cc1)c1cnc(Cl)c(Cl)c1 | inactive: 1.01% | –
O=C(NCC1CCCCC1)c1cc2ccccc2cc1O | inconclusive: -14.2% | –
Cc1ccc(C(=O)NC=C(Cl)Cl)cc1 | inconclusive: 5.37% | –
COc1cccc(C2C(C(C)=O)=C(O)C(=O)N2CCc2c[nH]c3ccccc23)c1 (centres undefined) | inconclusive: 10.7% | –
Cn1nccc1NC(=O)Nc1ccccc1 | inactive: 0.0016% | –
CC(NC(=O)Nc1ncccn1)(C(F)(F)F)C(F)(F)F | inconclusive: 0.006% | –
COc1ccc(C(=O)NNC(=O)C(Cc2ccc(O)cc2)NC(=O)c2ccccc2NC(=O)c2ccc(OC)cc2)cc1 (centres undefined) | inconclusive: 2.72% | –
CCCOc1c(Br)cc(C(=O)OCC(=O)NC2CC2)cc1OC | inactive: -0.439% | –
CCCN(S(=O)(=O)c1ccc(OCC)cc1)S(=O)(=O)c1cccs1 | inconclusive: 14.5% | –
CC(=O)N1CCc2cc(S(=O)(=O)CCC(=O)N3CCN(c4cc(C)ccc4C)CC3)ccc21 | inactive: -0.0202% | –
CSc1ccc(CN(C)C(=O)C2CCN(C(=O)Nc3ccccc3)CC2)cc1 | inconclusive: -11.3% | –
CCN(C(=O)COC(=O)Cc1cccc2ccccc12)C1CCS(=O)(=O)C1 (centres undefined) | inconclusive: 3.41% | –

SMILES | activity change, negative = inhibition | Potency
O=C(NCc1ccc(F)cc1)C1CCN(S(=O)(=O)c2ccc3c(c2)OCCCO3)CC1 | inconclusive: -0.672% | –
NC(=S)NN=C1c2cc(OCCN3CCOCC3)ccc2-c2ccc(OCCN3CCOCC3)cc21 | inconclusive: 8.82% | –
COc1ccc(N(CC(=O)Nc2cccc(C)c2C)S(=O)(=O)c2c(C)[nH]c(=O)[nH]c2=O)cc1 | inactive: 4.01% | –
C/C(N)=C(/C#N)C(=O)COC(=O)CCSc1ccccc1 | inconclusive: -1.52% | –
COc1ccc2[nH]c(=O)c(CN(Cc3ccccc3OC)Cc3nnnn3CC3CCCO3)cc2c1 (centres undefined) | – | inconclusive: 35.5 µM [falling, single point]
CCCC1S/C(=N/N=C/c2ccc(C)cc2)N(Cc2ccc(OC)cc2)C1=O (centres undefined) | inconclusive: -6.52% | –
Cc1cc(C)c2[nH]c(=S)cc(C)c2c1 | – | inconclusive: 29.1 µM [rising, single point]
Cc1cc(C)n2nc(C(=O)Nc3c(C)nn(Cc4ccc(F)cc4)c3C)cc2n1 | inconclusive: 6.46% | –
Cc1ccc(NC(=O)C2C3CC4OC(=O)C2C4C3)cc1Cl (centres undefined) | inactive: 4.95% | –
COc1ccc(-c2cc(C(F)F)n3ncc(C(=O)N4CCc5ccccc5C4)c3n2)cc1 | inactive: -25.8% | –
Cc1onc(-c2c(Cl)cccc2Cl)c1C(=O)NC1C(=O)N2C1SC(C)(C)C2C(=O)O (centres undefined) | inconclusive: -22.9% | –
COc1ccccc1N1CCN(C(=O)CCNS(=O)(=O)c2cc(Br)cnc2N)CC1 | inconclusive: -3.32% | –
Cc1ccc(CSCC(=O)N/N=C/c2cccc(OC3CSC3)c2)cc1 | inconclusive: 5.95% | –
C/C(=N\NC(=O)c1cccc(N/N=C(\C)c2ccncc2)c1)c1ccncc1 | inconclusive: 2.58% | –
COc1cc([C@H]2c3[nH]c4ccccc4c3C[C@H]3C(=O)N4[C@@H](c5cc(OC)c(OC)c(OC)c5)c5[nH]c6ccccc6c5C[C@H]4C(=O)N23)cc(OC)c1OC | inconclusive: 10.6% | –
COCCNCc1ccccc1 | inactive: 9.18% | –
COc1ccc(CN(Cc2ccc(C(=O)O)cc2)C(=S)Nc2cc(C)cc(C)c2)cc1OC | inconclusive: -11.7% | –
O=C(NCc1ccco1)C1(S(=O)(=O)c2ccccc2)CC=CC1 | inactive: -3.29% | –
C[C@@H](OC(=O)c1[nH]cnc1C(=O)NCc1ccc(CNC(=O)OC(C)(C)C)cc1)c1ccccc1 | – | inconclusive: 18.4 µM [falling, single point]
CC(C)OC(=O)c1c(N)n(CCCN2CCOCC2)c2nc3ccccc3nc12 | inconclusive: -8.65% | –
O=C(O)CCNS(=O)(=O)c1cccc2nsnc12 | inactive: 1.34% | –

Rewritten as tab-separated lines: entries from further up
SMILES	activity change, negative = inhibition	Potency
COc1ccc(CN(Cc2ccc(C(=O)O)cc2)C(=S)Nc2cc(C)cc(C)c2)cc1OC	inconclusive: -11.7%	–
O=C(NCc1ccco1)C1(S(=O)(=O)c2ccccc2)CC=CC1	inactive: -3.29%	–

(next part)

SMILES | activity change, negative = inhibition | Potency
O=C/C(=C\Nc1ccc(Br)cc1)c1nc2ccccc2o1 | inconclusive: 0.129% | –
CNc1c(N)c(=O)oc2ccccc12 | – | inconclusive: 22.4 µM [falling, partial curve]
CC(C)Oc1cc2oc(=O)c3c(c2cc1Cl)CCC3 | inconclusive: 3.27% | –
CCN(CC)CCNC(=O)c1cn(-c2ccccc2)nc1-c1cccs1 | inactive: -4.99% | –
Cc1nnc2sc(SCc3ccccc3Cl)nn2c1=O | – | inconclusive: 17.8 µM [falling, partial curve]
O=C(O)c1c2c(nc3ccccc13)/C(=C/c1ccccc1[N+](=O)[O-])CCC2 | inconclusive: -2.95% | –
COc1ccccc1N1CCN(C(=O)C2CCN(S(=O)(=O)c3ccc(Cl)cc3)CC2)CC1 | inconclusive: -1.72% | –
Cc1ccc(/C(N)=N/OC(=O)c2ccco2)cc1 | – | inconclusive: 0.326 µM [rising, full curve]
COc1ccc(OC)c(Nc2nnc(C)c(=O)[nH]2)c1 | inactive: 5.65% | –
CCOC(=O)Nc1ccc2c(CNC(C)c3ccccc3OC)cc(=O)oc2c1 (centres undefined) | inactive: -7.87% | –
COc1ccc(C2C(C#N)=C3NC(=O)c4c(sc5c4CCCCC5)N3C3=C2C(=O)CC(C)(C)C3)cc1 (centres undefined) | inactive: -1.51% | –
O=C(Nc1ccc(N2CCCCCC2)cc1)c1ccccc1Cl | – | inconclusive: 35.5 µM [rising, single point]
CCc1ccccc1NC(=O)CCC(=O)c1cccs1 | inconclusive: -14.7% | –
Cc1csc(N(C)C(=O)CSc2nnc(COc3cccc4ccccc34)o2)n1 | inconclusive: 0.256% | –
Cc1cccn2c(=O)c(/C=C(\C#N)C(N)=O)c(N3CCN(c4cccc(Cl)c4)CC3)nc12 | inconclusive: -12.3% | –
COc1ccc(N=Cc2ccc[nH]2)cc1 | inconclusive: 1.26% | –
COc1ccc(CC2(CO)CCN(C/C=C/c3ccccc3OC)CC2)cc1 | inactive: -12.4% | –
CC1=C(C(=O)O)N2C(=O)C(NC(=O)c3nn(C)c(C)c3Cl)C2SC1 (centres undefined) | – | inconclusive: 35.5 µM [falling, single point]
Cc1cc(C(C#N)c2ccc(Cl)cc2)c(Cl)cc1NC(=O)c1cc(I)cc(I)c1O (centres undefined) | inconclusive: -25.2% | –
Cc1cc(N2C(=O)C(O)=C(C(=O)c3cccs3)C2c2ccc(F)cc2)no1 (centres undefined) | inconclusive: 21.7% | –
COc1ccc2c(c1)N(C(=O)CSc1n[nH]c(C)n1)C(C)(C)C=C2C | inconclusive: -1.08% | –

Individual results from the list.
activity change, negative = inhibition, CCN(CC)CCNC(=O)c1cn(-c2ccccc2)nc1-c1cccs1 is entered as inactive: -4.99%
activity change, negative = inhibition, COc1ccc(CC2(CO)CCN(C/C=C/c3ccccc3OC)CC2)cc1 is entered as inactive: -12.4%
activity change, negative = inhibition, Cc1csc(N(C)C(=O)CSc2nnc(COc3cccc4ccccc34)o2)n1 is entered as inconclusive: 0.256%
activity change, negative = inhibition, Cc1cc(N2C(=O)C(O)=C(C(=O)c3cccs3)C2c2ccc(F)cc2)no1 (centres undefined) is entered as inconclusive: 21.7%
